“Also recorded” adds a separate entry of the source. At least one compound was matched to its structure with a doubt left.
Tested on: Human umbilical vein endothelial cells
Test: Millicell migration assay of HUVECs towards a cyclic RGD peptide coated membrane
Format: cell-based
Conditions: 2 hours, uncoated membranes
Protocol: FIG. 7 (Example 5): Bar graph showing the results of migration assays utilizing specialized Millicell culture plates for in vitro testing. HUVECs were seeded onto the inside surface of Millicell membranes and semi-quantified following migration through a microporous membrane at the outside surface after two hours of incubation.
Millicell culture plate inserts from Millipore were coated with cyclic RGD peptide at the outside surface of the microporous membrane only to stimulate haplotactic cell migration. Human umbilical vein endothelial cells (HUVCEs) were loaded into millicell chambers in completed medium in the presence or absence of paclitaxel or sirolimus, and subsequently incubated for 2 hours at 37 C.°.

CO[C@H]1C[C@@H]2CC[C@@H](C)[C@@](O)(O2)C(=O)C(=O)N2CCCC[C@H]2C(=O)O[C@H]([C@H](C)C[C@@H]2CC[C@@H](O)[C@H](OC)C2)CC(=O)[C@H](C)/C=C(\C)[C@@H](O)[C@@H](OC)C(=O)[C@H](C)C[C@H](C)/C=C/C=C/C=C/1C [sirolimus]
Cell migration in the presence of the antiproliferative drug: marked decrease; also recorded: almost completely abolished

From US20090053280A1, “COATING STENTS WITH CYCLIC RGD PEPTIDES OR MIMETICS” (priority 2007, published 2009)
